Laboratory results as given in patent US4035486A, “Medicament” (Centre d'Etudes Experimentales et Clinques de Physio …, priority 1974, dated 1977).
For at least one compound, name, drawing or mass did not settle the structure.

System: sections of the cerebral cortex of a rat stimulated by KCl
Test: Action in vitro on consumption of oxygen, accumulation of lactic acid and consumption of glucose in rat cerebral cortex sections stimulated by KCl (Warburg technique, enzymatic determination)
Type: cell-based
Details: guanosine 1.66.10^-4 M, acetylcholine 2.7.10^-10 M
From the text: 1. The investigation, on sections of a rat's brain which have been stimulated by KCl, of the variations in the consumption of oxygen, the production of lactic acid and the consumption of glucose, by WARBURG's conventional technique, after which these sections are subjected to the action of guanosine, ACh or insulin or guanosine in association with ACh or insulin. I. Action in vitro of guanosine, alone or in association with acetylcholine or insulin, on the consumption of oxygen, the accumulation of lactic acid and the consumption of glucose in sections of the cerebral cortex of a rat which have been stimulated by KCl. The animals which are used are male Wistar Vag rats with an average weight of 225/250 grammes, and they have been subjected to standard laboratory regime. The sections of tissue, which weigh between 15 and 20 mg, were taken from the cerebral cortex of the rat and allowed to incubate for 1 hour at 37° after being placed in a flask containing the Krebs-Ringer phosphate buffer having a KCl concentration of 10 percent. The substrate comprises 15 μ moles of glucose. […] The consumption of oxygen is measured according to Warburg's conventional method after a 1-hour period of incubation at 37°. […] The lactic acid and glucose are determined in the deproteinised incubation medium by an enzymatic method. […]

CC(=O)OCC[N+](C)(C)C [ACh, acetylcholine, reference compound]
effect upon the consumption of glucose (in words): increase
effect upon the consumption of oxygen (in words) (insulin 66.10^-4 μ/liter): increases the consumption of oxygen
